Results are given in words; binding and its absence hold for the method and conditions named. Binding seen in cells or lysates may run through a third protein. Some results given as binding are weak or reduced against the parent protein; the word gives no strength. For part of these data: Sequences can lack the tags named with a protein.
Assays:
HA-tagged MAGI3 = target: T1, HA-tagged MAGI3 (UniProt Q5TCQ9); experiment: co-IP; co-IP in the reverse order of a1; 293T cells with Flag-tagged WT or S415A c-Myc and HA-tagged MAGI3, with or without OGT overexpression
T1 sequence: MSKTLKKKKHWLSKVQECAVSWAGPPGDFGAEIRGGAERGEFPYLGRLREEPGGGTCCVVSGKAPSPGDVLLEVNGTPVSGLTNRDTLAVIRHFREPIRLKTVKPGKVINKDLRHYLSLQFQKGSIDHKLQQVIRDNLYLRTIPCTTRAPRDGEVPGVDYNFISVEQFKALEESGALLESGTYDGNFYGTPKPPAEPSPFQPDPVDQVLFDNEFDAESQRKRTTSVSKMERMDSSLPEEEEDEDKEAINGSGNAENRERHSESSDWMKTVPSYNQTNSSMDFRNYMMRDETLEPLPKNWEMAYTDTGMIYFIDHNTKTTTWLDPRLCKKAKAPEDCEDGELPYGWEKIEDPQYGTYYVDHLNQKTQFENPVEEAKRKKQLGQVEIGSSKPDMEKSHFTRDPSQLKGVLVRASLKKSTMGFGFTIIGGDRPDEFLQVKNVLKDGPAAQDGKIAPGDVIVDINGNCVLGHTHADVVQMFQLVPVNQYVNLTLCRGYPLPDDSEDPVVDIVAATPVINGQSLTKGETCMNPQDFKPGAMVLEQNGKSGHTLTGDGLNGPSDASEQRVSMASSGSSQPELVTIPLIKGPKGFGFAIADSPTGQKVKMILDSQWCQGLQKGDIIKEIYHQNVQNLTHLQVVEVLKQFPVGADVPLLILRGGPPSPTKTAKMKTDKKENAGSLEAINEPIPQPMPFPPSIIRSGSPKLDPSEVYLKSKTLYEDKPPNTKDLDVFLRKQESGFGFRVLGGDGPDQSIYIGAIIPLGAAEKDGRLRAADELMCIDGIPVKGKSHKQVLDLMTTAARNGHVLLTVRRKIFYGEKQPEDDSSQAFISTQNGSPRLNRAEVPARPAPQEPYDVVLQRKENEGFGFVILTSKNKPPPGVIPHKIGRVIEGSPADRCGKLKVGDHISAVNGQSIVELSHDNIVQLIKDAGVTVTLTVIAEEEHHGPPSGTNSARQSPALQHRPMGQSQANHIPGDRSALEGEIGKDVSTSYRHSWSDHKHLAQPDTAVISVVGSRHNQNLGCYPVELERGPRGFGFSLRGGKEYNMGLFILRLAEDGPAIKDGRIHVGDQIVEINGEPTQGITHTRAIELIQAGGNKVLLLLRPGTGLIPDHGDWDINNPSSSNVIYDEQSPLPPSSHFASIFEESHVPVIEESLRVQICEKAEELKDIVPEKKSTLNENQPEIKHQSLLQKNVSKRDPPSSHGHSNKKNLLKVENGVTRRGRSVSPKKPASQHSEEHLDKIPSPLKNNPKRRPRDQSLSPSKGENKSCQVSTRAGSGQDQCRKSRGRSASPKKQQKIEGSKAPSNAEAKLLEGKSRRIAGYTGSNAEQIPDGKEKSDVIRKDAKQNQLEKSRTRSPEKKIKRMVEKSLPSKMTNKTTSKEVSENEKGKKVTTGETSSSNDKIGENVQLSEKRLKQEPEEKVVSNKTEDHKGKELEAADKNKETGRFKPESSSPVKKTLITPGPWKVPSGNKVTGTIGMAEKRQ

Sequences of proteins named here, by UniProt entry; tags and fusion partners are left off. A change or cut given only in a name is not applied to a line headed by its entry. A line that says so, or that is headed by a name, gives the form on record, which may keep a tag or linker. Residues count along the entry.
shRNA-resistant Flag-tagged WT c-Myc reconstituted in HT-29 cells (P01106, residues 16-454): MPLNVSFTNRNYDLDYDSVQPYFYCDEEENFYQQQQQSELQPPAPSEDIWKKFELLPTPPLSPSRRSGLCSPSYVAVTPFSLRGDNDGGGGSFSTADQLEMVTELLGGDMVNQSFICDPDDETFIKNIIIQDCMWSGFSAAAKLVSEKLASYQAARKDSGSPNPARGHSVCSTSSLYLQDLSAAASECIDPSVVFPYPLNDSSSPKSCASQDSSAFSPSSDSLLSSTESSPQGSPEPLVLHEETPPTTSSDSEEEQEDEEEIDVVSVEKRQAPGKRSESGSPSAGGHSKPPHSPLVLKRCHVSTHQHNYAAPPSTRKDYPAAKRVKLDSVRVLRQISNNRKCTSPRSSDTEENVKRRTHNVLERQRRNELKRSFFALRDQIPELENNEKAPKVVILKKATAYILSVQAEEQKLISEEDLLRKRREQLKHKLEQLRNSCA
shRNA-resistant Flag-tagged S415A c-Myc reconstituted in HT-29 cells (P01106-1, form named): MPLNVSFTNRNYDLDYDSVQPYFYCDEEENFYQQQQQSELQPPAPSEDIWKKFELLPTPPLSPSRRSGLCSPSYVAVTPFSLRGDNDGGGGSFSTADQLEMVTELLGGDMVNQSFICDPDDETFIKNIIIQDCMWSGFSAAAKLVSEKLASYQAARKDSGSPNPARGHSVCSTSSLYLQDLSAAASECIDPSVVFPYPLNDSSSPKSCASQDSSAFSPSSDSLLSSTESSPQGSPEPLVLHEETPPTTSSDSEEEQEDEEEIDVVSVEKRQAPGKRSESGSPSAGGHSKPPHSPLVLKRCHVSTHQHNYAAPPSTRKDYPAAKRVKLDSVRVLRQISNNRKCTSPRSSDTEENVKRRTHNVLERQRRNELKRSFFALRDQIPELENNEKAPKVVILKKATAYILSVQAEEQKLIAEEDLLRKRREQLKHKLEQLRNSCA

Flag-tagged WT c-Myc = Flag-tagged WT c-Myc (UniProt P01106); experiment: co-IP; 293T cells ectopically expressing Flag-tagged WT or S415A c-Myc and HA-tagged MAGI3, with or without OGT overexpression; immunoblot
Flag-tagged S415A c-Myc = Flag-tagged S415A c-Myc (UniProt P01106); experiment: as above
[1] = target: shRNA-resistant Flag-tagged WT c-Myc reconstituted in HT-29 cells (UniProt P01106); experiment: co-IP; HT-29 cells reconstituted with WT or S415A c-Myc; endogenous MAGI3; with or without TMG treatment; immunoblot
[2] = target: shRNA-resistant Flag-tagged S415A c-Myc reconstituted in HT-29 cells (UniProt P01106); experiment: as above

Flag-tagged WT c-Myc (from UniProt P01106-1 1-439)
binding (HA-tagged MAGI3): binds

Flag-tagged S415A c-Myc (from UniProt P01106-1 1-439)
binding (HA-tagged MAGI3): binds

B1: HA-tagged MAGI3 (protein, UniProt Q5TCQ9 1-1481)
chain: T1 sequence
binding (Flag-tagged WT c-Myc): binds
binding (Flag-tagged S415A c-Myc): binds

B2: endogenous MAGI3 (protein, UniProt Q5TCQ9 1-1481)
chain: T1 sequence
binding [1]: binds
binding [2]: binds
